The assay can be described thus: qHTS Assay to Find Inhibitors of Chronic Active B-Cell Receptor Signaling. The conditions noted are these: ABC-DLBCL IkBa-CBG/CBR reporter, luminescence ratio (green luciferase fused to IkBa over red control in TMD8 lymphoma cells), 4 h. In outline:
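Compounds up to 46 uM were incubated four hours with TMD8 cells whose green CBG68 luciferase is fused to IkappaBalpha; red CBR luminescence normalised the signal, and concentration-effect curves were fitted to fusion, red and ratio data.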

[1] abbreviates: measured here: CBR red luminescence, cell number.
[2] abbreviates: measured here: IkBa-CBG green luminescence.

The list shows a part of the results. These are further read-outs of the screen, such as a control signal, another cell line or another target. No call is given for them. Most of these compounds were active or inconclusive in the main read-out, so they are no random draw. The note in brackets gives the kind of curve behind each potency; many fits are weak.

Turning to `CC(=O)c1cc(C#N)c(SCc2ccccc2C#N)nc1C`, the AC50 under setting [1] is 8.2 µM [rising, partial curve, poor fit].
Same read-out and setting: for `Cc1cc(C(=O)NNS(=O)(=O)c2cc(C(=O)O)ccc2Cl)c(C)n1-c1ccccc1` the value was 4.61 µM [rising, single point]; for `O=C(NNC(=S)NC(=O)c1ccccc1[N+](=O)[O-])c1ccccc1O`, 2.24 µM [falling, partial curve, poor fit]; for `CCN=C1SC(C(=O)Nc2ccccc2)CC(=O)N1CC` (stereo not given), 18.4 µM [rising, single point].
Still for that read-out and setting: then `O=C(Nc1ccccc1)OCCCc1ccccc1`, with 12.6 µM [falling, partial curve, poor fit]; and `O=C(CC(c1ccccc1)c1ccccc1)OCn1nnc2ccccc2c1=O`, with 18.4 µM [rising, partial curve, poor fit].
Turning to `COc1ccc(C(=O)NCC(=O)N/N=C(\C)Cc2ccccc2)cc1`, the AC50 under setting [1] is 6.31 µM [falling, single point].
Still for that read-out and setting: for `O=C(NC(=S)Nc1ccccc1N1CCCCC1)c1ccco1` the value was 14.6 µM [rising, partial curve, poor fit].
Turning to `O=C(Nc1ccc(Cl)cc1)N1CCCC1`, the half-maximal activity concentration (AC50) under setting [1] is 1.64 µM [rising, full curve].
`CCN(CCCNC(=O)CNC(=O)c1nn(-c2ccc(OC)c(OC)c2)c(=O)c2ccccc12)c1ccccc1`: under setting [2], the AC50 is 22.4 µM [rising, partial curve, poor fit].
For `O=C(Nc1nc2cc3c(cc2s1)OCCO3)c1cccc(S(=O)(=O)N2CCOCC2)c1`, the AC50 under setting [1] was 22.4 µM [falling, single point].
Still for that read-out and setting: then `CCOC(=O)/C(C#N)=C\C1=C(N2CCOCC2)CC(C)(C)OC1`, with 22.4 µM [falling, single point]; and `O=C(Nc1ccc2ccccc2n1)c1ccccc1Cl`, with 2.82 µM [falling, full curve, poor fit]; and `Cc1cc(C)c2cc(CN(CCO)C(c3nnnn3Cc3ccc(F)cc3)C(C)C)c(=O)[nH]c2c1` (stereo not given), with 0.82 µM [rising, partial curve, poor fit].
Still for that read-out and setting: for `O=[N+]([O-])c1ccccc1-c1nc(-c2ccc(Br)o2)no1` the value was 1.84 µM [rising, full curve]; for `O=C1/C(=C/N(C(=O)c2ccco2)c2ccc(Br)cc2)Sc2ccccc21`, 25.9 µM [falling, partial curve, poor fit]; for `COc1ccc(/C=N/n2cnnc2SCCO)cc1OC`, 15.8 µM [rising, partial curve, poor fit].
Same read-out and setting: for `O=Nc1c(O)n(Cc2ccc(Cl)cc2Cl)c2ccccc12` the value was 12.6 µM [rising, partial curve, poor fit]; for `NC(=O)CC1C(=O)N(c2ccccc2)C(=S)N1NC(=O)c1ccc(Br)cc1` (stereo not given), 11.2 µM [falling, partial curve].
Consider `COc1cc(-c2noc(C)c2/C=C/c2ccc(OC(C)=O)cc2)cc(OC)c1OC`, for which the AC50 under setting [2] was 5.62 µM [falling, partial curve].
In the case of `CCS(=O)(=O)N1Cc2ccccc2CC1C(=O)N1CCN(c2ccccc2)CC1` (stereo not given), the AC50 under setting [1] is 5.62 µM [rising, single point].
The same measure, in the same setting: then `CC(C)(C)C(=O)[C@@H]1[C@@H]2C(=O)N(Cc3ccccc3)C(=O)[C@@H]2[C@H]2c3ccccc3C=CN12`, with 16.4 µM [falling, single point].
On the same count and under the same terms, then `Cc1cccc(C(=O)NC(=S)NNC(=O)c2cccs2)c1`, with 23.1 µM [falling, single point].
In the case of `COc1cc(C2=NOC(C(=O)NCc3ccco3)C2)cc(OC)c1OC` (stereo not given), the half-maximal activity concentration (AC50) runs as follows: under setting [1], 35.5 µM [rising, single point]; under setting [2], 25.1 µM [falling, partial curve, poor fit].
Turning to `O=C(COC(=O)c1cnccn1)Nc1ccc(Cl)cc1C(F)(F)F`, the AC50 under setting [1] was 0.326 µM [rising, full curve, poor fit].
`O=C(CN(c1ccc2c(c1)OCCO2)S(=O)(=O)c1ccccc1)NCc1ccc(Cl)cc1`: the AC50 under setting [1] was 18.4 µM [falling, partial curve, poor fit].
In the case of `CC1CCN(c2c(NCC3CCC(C(=O)NCCC4=CCCCC4)CC3)c(=O)c2=O)CC1` (stereo not given), the concentration at half-maximal activity (AC50) under setting [1] was 5.62 µM [rising, single point].
Same read-out and setting: for `C=CCn1c(N)c(C(=O)NCC2CCCO2)c2nc3ccccc3nc21` (stereo not given) the value was 3.16 µM [falling, full curve, poor fit]; for `Cc1cccnc1NC(=O)CSc1ccc2c(c1)OCCO2`, 1.46 µM [falling, partial curve, poor fit]; for `CCC(=O)NC1=C(NC(C)c2ccccc2)C(=O)c2ccccc2C1=O` (stereo not given), 16.4 µM [rising, partial curve, poor fit].
On the same count and under the same terms, then `C/C(=N\NC(=O)C(C)Sc1ccccc1)c1ccc([N+](=O)[O-])cc1` (stereo not given), with 7.94 µM [rising, partial curve]; and `CC(=O)O[C@H]1CC[C@]2(C)[C@H]3CC=C4[C@@H]5[C@@H](C)[C@H](C)CC[C@]5(C(=O)O)CC[C@@]4(C)[C@]3(C)CC[C@H]2C1(C)C`, with 22.4 µM [rising, partial curve, poor fit]; and `Cc1ccc(CNC(=O)COc2ccc(S(=O)(=O)N3CCOCC3)cc2)cc1`, with 6.51 µM [rising, single point].
With `COc1cccc(NC(=O)c2cnc(SCC(=O)NCc3ccc4c(c3)OCO4)n(C)c2=O)c1`, the concentration at half-maximal activity (AC50) under setting [1] is 9.2 µM [falling, partial curve].
Same read-out and setting: for `COc1ccc(-c2noc(C3CCCN(C(=O)Nc4ccccc4)C3)n2)cc1` (stereo not given) the value was 0.891 µM [falling, full curve]; for `CCn1cc(CN2CCCC(CNC(=O)COc3ccccc3OC)C2)c(C)n1` (stereo not given), 0.562 µM [falling, full curve, poor fit]; for `COc1ccccc1CNC(=O)COC(=O)c1cc(-c2ccco2)nc2ccccc12`, 25.9 µM [falling, single point].
Still for that read-out and setting: for `CCC(=O)N1N=C(c2c(O)n(C)c(=O)n(C)c2=O)CC1c1ccccc1` (stereo not given) the value was 35.5 µM [falling, single point]; for `O=C(NCC(=O)N1CCCCC1)c1sc2ccccc2c1Cl`, 11.6 µM [falling, partial curve].
As to `c1ccc(COc2ccccc2CNC23CC4CC(CC(C4)C2)C3)cc1`, the AC50 under setting [1] was 11.2 µM [falling, partial curve, poor fit] and the AC50 under setting [2] is 28.2 µM [rising, partial curve, poor fit].
Regarding `Cc1ccccc1CNc1nc(N)n(-c2ccccc2)n1`, the concentration at half-maximal activity (AC50) under setting [1] is 17.8 µM [falling, partial curve, poor fit].
The same measure, in the same setting: then `c1ccc2[nH]c(CN3CCCCCC3)nc2c1`, with 20.6 µM [falling, single point].
Consider `CCCN(CCC)Cc1c(C(=O)N/N=C/C(C)=C\c2ccco2)nnn1-c1nonc1N`, for which, under setting [2], the AC50 was 20 µM [rising, partial curve, poor fit].
As to `O=C(Cn1nc2n(c1=O)-c1ccccc1SC2)N/N=C/c1cccnc1`, the AC50 under setting [1] is 10 µM [rising, partial curve, poor fit].
Still for that read-out and setting: for `CCOCCCN(C)C1CCN(C(=O)c2oc3ccccc3c2NC(=O)c2ccc([N+](=O)[O-])cc2)CC1` the value was 14.1 µM [rising, single point].
Same read-out and setting: then `S=c1[nH]nc(Nc2cccc(Cl)c2)s1`, with 1.12 µM [rising, full curve, poor fit]; and `O=C1CC(c2ccccc2)CC(O)=C1C=NCCN1CCN(Cc2ccccc2)CC1` (stereo not given), with 3.98 µM [falling, single point].
In the case of `C/C(=N\NC(=O)COc1ccc(C(C)(C)C)cc1)c1ccc(N2CCOCC2)cc1`, the half-maximal activity concentration (AC50) under setting [2] was 29.1 µM [falling, partial curve, poor fit].
As to `Clc1ccccc1CSc1ncccn1`, the AC50 under setting [1] is 10.3 µM [rising, single point].
The same measure, in the same setting: for `O=C(Nc1ccc(Cl)cc1Cl)c1ccc2ncsc2c1` the value was 0.398 µM [rising, full curve, poor fit]; for `CCCCCCc1nnc(NC(=O)OCC)s1`, 10 µM [rising, partial curve]; for `Cc1nnc2ccc(-c3ccc(NC(=O)c4ccco4)cc3)nn12`, 35.5 µM [falling, single point].
Same read-out and setting: then `COc1ccc2c(c1)[nH]c1c(=O)n(Cc3ccccn3)cnc12`, with 1.3 µM [rising, partial curve, poor fit]; and `C/C(CC(=O)Nc1cccc(F)c1)=N\NC(=O)c1ccncc1`, with 35.5 µM [falling, single point]; and `O=C(Cc1cccs1)Nc1ccccc1C(=O)O`, with 29.1 µM [falling, single point].
The same measure, in the same setting: for `Cc1cc(C(=O)O)ccc1-c1ccc(/C=N/n2cnnc2)o1` the value was 11.2 µM [falling, partial curve]; for `COc1ccc(/C(O)=C2/C(=O)C(=O)N(c3ccccn3)C2c2ccc(OC)cc2)cc1` (stereo not given), 35.5 µM [rising, single point]; for `O=C(O)CSc1nnc2c(n1)[nH]c1ccccc12`, 35.5 µM [falling, single point].
Turning to `Cc1cc(C)n(-c2nc(-c3ccc(Cl)cc3)cs2)n1`, the AC50 under setting [1] was 3.66 µM [rising, partial curve, poor fit].
For `O=C(Nc1ccccc1)N1CCCC1`, under setting [1], the AC50 was 1.3 µM [rising, partial curve].
Still for that read-out and setting: for `Cn1c(=O)c2c(ncn2CCO)n(C)c1=O` the value was 4.47 µM [falling, partial curve, poor fit].
The same measure, in the same setting: then `Cc1nc([N+](=O)[O-])c(Br)n1CC(=O)c1ccc(F)cc1`, with 0.1 µM [falling, full curve, poor fit].
Still for that read-out and setting: for `CC(C)C(=O)Nc1nnc(SCc2cccc(F)c2)s1` the value was 7.94 µM [rising, partial curve].

The values above are taken from PubChem BioAssay AID493014 (National Center for Advancing Translational Sciences (NCATS), 2011).
